These are yes or no findings as the source states them, for the method shown. In cells and extracts the contact can be indirect. These calls come from enrichment with a bait or labelling near it, and not all partners need be listed.
B1: PTK7 (tyrosine receptor kinase 7), endogenous, Q13308 31-1070 (receptor)
chain: AIVFIKQPSSQDALQGRRALLRCEVEAPGPVHVYWLLDGAPVQDTERRFAQGSSLSFAAVDRLQDSGTFQCVARDDVTGEEARSANASFNIKWIEAGPVVLKHPASEAEIQPQTQVTLRCHIDGHPRPTYQWFRDGTPLSDGQSNHTVSSKERNLTLRPAGPEHSGLYSCCAHSAFGQACSSQNFTLSIADESFARVVLAPQDVVVARYEEAMFHCQFSAQPPPSLQWLFEDETPITNRSRPPHLRRATVFANGSLLLTQVRPRNAGIYRCIGQGQRGPPIILEATLHLAEIEDMPLFEPRVFTAGSEERVTCLPPKGLPEPSVWWEHAGVRLPTHGRVYQKGHELVLANIAESDAGVYTCHAANLAGQRRQDVNITVATVPSWLKKPQDSQLEEGKPGYLDCLTQATPKPTVVWYRNQMLISEDSRFEVFKNGTLRINSVEVYDGTWYRCMSSTPAGSIEAQARVQVLEKLKFTPPPQPQQCMEFDKEATVPCSATGREKPTIKWERADGSSLPEWVTDNAGTLHFARVTRDDAGNYTCIASNGPQGQIRAHVQLTVAVFITFKVEPERTTVYQGHTALLQCEAQGDPKPLIQWKGKDRILDPTKLGPRMHIFQNGSLVIHDVAPEDSGRYTCIAGNSCNIKHTEAPLYVVDKPVPEESEGPGSPPPYKMIQTIGLSVGAAVAYIIAVLGLMFYCKKRCKAKRLQKQPEGEEPEMECLNGGPLQNGQPSAEIQEEVALTSLGSGPAATNKRHSTSDKMHFPRSSLQPITTLGKSEFGEVFLAKAQGLEEGVAETLVLVKSLQSKDEQQQLDFRRELEMFGKLNHANVVRLLGLCREAEPHYMVLEYVDLGDLKQFLRISKSKDEKLKSQPLSTKQKVALCTQVALGMEHLSNNRFVHKDLAARNCLVSAQRQVKVSALGLSKDVYNSEYYHFRQAWVPLRWMSPEAILEGDFSTKSDVWAFGVLMWEVFTHGEMPHGGQADDEVLADLQAGKARLPQPEGCPSKLYRLMQRCWALSPKDRPSFSEIASALGDSTVDSKP
B2: DSG3 (protein, UniProt P32926 50-999)
chain: EWVKFAKPCREGEDNSKRNPIAKITSDYQATQKITYRISGVGIDQPPFGIFVVDKNTGDINITAIVDREETPSFLITCRALNAQGLDVEKPLILTVKILDINDNPPVFSQQIFMGEIEENSASNSLVMILNATDADEPNHLNSKIAFKIVSQEPAGTPMFLLSRNTGEVRTLTNSLDREQASSYRLVVSGADKDGEGLSTQCECNIKVKDVNDNFPMFRDSQYSARIEENILSSELLRFQVTDLDEEYTDNWLAVYFFTSGNEGNWFEIQTDPRTNEGILKVVKALDYEQLQSVKLSIAVKNKAEFHQSVISRYRVQSTPVTIQVINVREGIAFRPASKTFTVQKGISSKKLVDYILGTYQAIDEDTNKAASNVKYVMGRNDGGYLMIDSKTAEIKFVKNMNRDSTFIVNKTITAEVLAIDEYTGKTSTGTVYVRVPDFNDNCPTAVLEKDAVCSSSPSVVVSARTLNNRYTGPYTFALEDQPVKLPAVWSITTLNATSALLRAQEQIPPGVYHISLVLTDSQNNRCEMPRSLTLEVCQCDNRGICGTSYPTTSPGTRYGRPHSGRLGPAAIGLLLLGLLLLLLAPLLLLTCDCGAGSTGGVTGGFIPVPDGSEGTIHQWGIEGAHPEDKEITNICVPPVTANGADFMESSEVCTNTYARGTAVEGTSGMEMTTKLGAATESGGAAGFATGTVSGAASGFGAATGVGICSSGQSGTMRTRHSTGGTNKDYADGAISMNFLDSYFSQKAFACAEEDDGQEANDCLLIYDNEGADATGSPVGSVGCCSFIADDLDDSFLDSLGPKFKKLAEISLGVDGEGKEVQPPSKDSGYGIESCGHPIEVQQTGFVKCQTLSGSQGASALSTSGSVQPAVSIPDPLQHGNYLVTETYSASGSLVQPSTAGFDPLLTQNVIVTERVICPISSVPGNLAGPTQLRGSHTMLCTEDPCSRLI

Experiments:
[1] = molecular target: T1, endogenous EGFR of A431 and NCI-H226 cells (human (endogenous in A431 and NCI-H226)), P00533; assay: proximity labelling; EGFR-FabID on adherent A431 cells (endogenous EGFR), 37 °C, 2 h; DMSO, EGF, EGF+gefitinib or gefitinib alone; biotinylated peptides enriched with Tamavidin 2-REV, LC-MS/MS; AGIA-FabID as control; details: remark: other sources report otherwise
[2] = molecular target: T1, endogenous EGFR of A431 and NCI-H226 …; assay: proximity labelling; EGFR-FabID on adherent NCI-H226 cells (endogenous EGFR), 37 °C, 3 h; DMSO, EGF, EGF+gefitinib or gefitinib alone; biotinylated peptides enriched with Tamavidin 2-REV, LC-MS/MS; AGIA-FabID as control; details: remark: other sources report otherwise
[3] = molecular target: endogenous EGFR of A431 and NCI-H226 cells (human (endogenous in A431 and NCI-H226)) (UniProt P00533); assay: proximity labelling; EGFR-FabID on adherent A431 cells (endogenous EGFR), 37 °C, 2 h; DMSO, EGF, EGF+gefitinib or gefitinib alone; biotinylated peptides enriched with Tamavidin 2-REV, LC-MS/MS; AGIA-FabID as control

Binder	binding [1]	binding [2]	binding [3]
B1	binds	binds	–
B2	–	–	binds

Reference: publication PMC10721602
